This is an account of results in publication PMC12830989 (Nature Communications, 2025).

Data set [1] can be described thus: general procedure: Fmoc solid-phase peptide synthesis; Tentagel S RAM resin (loading 0.20-0.25 mmol/g); DIC/Oxyma (automated); HCTU/DiPEA (manual). To be noted: conjugation step.
A short description of data set [2]: general procedure: Fmoc solid-phase peptide synthesis; RAM-Tentagel S; DIC/Oxyma (automated); HCTU/DiPEA (manual). To be noted: whole synthesis, scale 5 µmol.

In data set [1], “Ac-Lys(Man)-Lys(Man)-Lys(Man)-Lys(Man)-Lys(Man)-Lys(Man)-TEG-Asp-Glu-Val-Ser-Gly-Leu-Glu-Gln-Leu-Glu-Ser-Ile-Ile-Asn-Phe-Glu-Lys-Leu-Ala-Ala-Ala-Ala-Ala-Lys(sCy5)-NH2 (DEVSGLEQLESIINFEKLAAAAAK; six Lys(Man), TEG, sulfo-Cy5, C-amide; printed: Asp-Glu-Val-Ser-Gly-Leu-Glu-Gln-Leu-Glu-Ser-Ile-Ile-Asn-Phe-Glu-Lys-Leu-Ala-Ala-Ala-Ala-Ala-Lys)” had a conjugation yield of 85%. Take “Ac-Lys(N3)-Gly-Lys(N3)-TEG-Asp-Glu-Val-Ser-Gly-Leu-Glu-Gln-Leu-Glu-Ser-Ile-Ile-Asn-Phe-Glu-Lys-Leu-Ala-Ala-Ala-Ala-Ala-Lys(sCy5)-NH2”: in data set [2], the isolated mass amounted to 1.24 mg and the isolated yield stood at 6.6%. For “ys(N3)-TEG-Asp-Glu-Val-Ser-Gly-Leu-Glu-Gln-Leu-Glu-Ser-Ile-Ile-Asn-Phe-Glu-Lys-Leu-Ala-Ala-Ala-Ala-Ala-Lys(sCy5)-NH2”, in that order: 1.60 mg and 7.4%.
